Experimental data: paper PMC10706732

How the values were obtained:
[1] = target: T1, Murine ceruloplasmin (murine) (UniProt Q61147); test: native gel or EMSA; disc electrophoresis in polyacrylamide gel without detergents; LF or LF/8OA (1-8 ug) added to purified CP (1 ug/lane); CP band stained with o-dianisidine; both purified
T1 sequence: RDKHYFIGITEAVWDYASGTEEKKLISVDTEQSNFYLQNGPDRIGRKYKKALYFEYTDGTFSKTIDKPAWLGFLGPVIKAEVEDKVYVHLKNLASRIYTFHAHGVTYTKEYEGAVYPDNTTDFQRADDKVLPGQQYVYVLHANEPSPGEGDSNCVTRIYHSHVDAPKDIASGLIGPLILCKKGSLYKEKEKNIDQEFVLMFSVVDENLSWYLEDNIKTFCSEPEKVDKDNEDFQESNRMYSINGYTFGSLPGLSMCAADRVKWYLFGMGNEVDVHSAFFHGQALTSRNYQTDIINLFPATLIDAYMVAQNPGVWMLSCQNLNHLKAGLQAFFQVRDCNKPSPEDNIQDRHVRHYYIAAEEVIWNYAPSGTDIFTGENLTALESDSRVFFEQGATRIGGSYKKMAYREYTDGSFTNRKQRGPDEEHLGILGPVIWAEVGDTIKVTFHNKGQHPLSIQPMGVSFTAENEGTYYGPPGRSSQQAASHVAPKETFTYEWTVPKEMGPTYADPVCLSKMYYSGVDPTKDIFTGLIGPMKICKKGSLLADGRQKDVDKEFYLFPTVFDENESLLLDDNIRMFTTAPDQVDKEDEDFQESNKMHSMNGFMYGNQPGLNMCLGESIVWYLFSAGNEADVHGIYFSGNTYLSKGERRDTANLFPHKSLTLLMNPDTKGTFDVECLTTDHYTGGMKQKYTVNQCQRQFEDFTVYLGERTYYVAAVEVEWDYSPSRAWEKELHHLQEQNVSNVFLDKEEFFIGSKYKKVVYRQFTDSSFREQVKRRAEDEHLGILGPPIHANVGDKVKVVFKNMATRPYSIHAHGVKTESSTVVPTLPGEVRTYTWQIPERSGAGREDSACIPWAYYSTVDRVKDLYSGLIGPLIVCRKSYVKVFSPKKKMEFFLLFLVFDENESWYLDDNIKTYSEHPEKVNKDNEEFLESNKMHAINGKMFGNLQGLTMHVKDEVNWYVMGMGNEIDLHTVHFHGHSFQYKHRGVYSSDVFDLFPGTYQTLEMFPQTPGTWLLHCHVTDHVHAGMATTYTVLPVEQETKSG

[2] = target: T2, Human ceruloplasmin (human) (UniProt P00450); test: as above
T2 sequence: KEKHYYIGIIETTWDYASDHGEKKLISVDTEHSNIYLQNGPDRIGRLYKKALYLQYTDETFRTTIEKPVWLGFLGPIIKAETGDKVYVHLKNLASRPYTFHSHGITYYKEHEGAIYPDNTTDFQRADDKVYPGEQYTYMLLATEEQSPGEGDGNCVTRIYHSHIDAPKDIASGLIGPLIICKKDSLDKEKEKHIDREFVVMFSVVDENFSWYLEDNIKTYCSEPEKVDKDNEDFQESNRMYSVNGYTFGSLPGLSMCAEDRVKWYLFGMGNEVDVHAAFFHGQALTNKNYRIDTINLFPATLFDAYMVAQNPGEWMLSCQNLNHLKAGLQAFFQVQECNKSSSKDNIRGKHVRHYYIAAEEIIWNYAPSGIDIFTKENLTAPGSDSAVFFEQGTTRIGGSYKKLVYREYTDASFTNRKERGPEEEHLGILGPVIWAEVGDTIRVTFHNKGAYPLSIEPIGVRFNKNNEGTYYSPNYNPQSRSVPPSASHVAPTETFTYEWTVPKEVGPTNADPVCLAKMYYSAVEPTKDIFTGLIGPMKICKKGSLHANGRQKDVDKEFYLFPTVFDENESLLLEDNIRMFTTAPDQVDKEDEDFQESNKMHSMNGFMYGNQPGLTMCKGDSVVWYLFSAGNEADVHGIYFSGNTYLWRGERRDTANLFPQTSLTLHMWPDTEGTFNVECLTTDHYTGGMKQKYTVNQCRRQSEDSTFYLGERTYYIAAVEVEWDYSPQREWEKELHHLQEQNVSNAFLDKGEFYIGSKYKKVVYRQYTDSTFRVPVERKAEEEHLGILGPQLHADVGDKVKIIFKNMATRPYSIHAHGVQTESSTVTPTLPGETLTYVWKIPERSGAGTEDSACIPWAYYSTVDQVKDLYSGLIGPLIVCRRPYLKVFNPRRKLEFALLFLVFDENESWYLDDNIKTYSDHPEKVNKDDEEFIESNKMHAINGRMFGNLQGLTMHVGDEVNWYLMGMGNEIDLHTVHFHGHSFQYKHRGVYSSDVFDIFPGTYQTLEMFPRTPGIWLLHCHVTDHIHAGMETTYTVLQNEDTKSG

[3] = target: T1, Murine ceruloplasmin (murine); test: native gel or EMSA; PAGE without detergents; LF or LF/8OA added to human or murine serum instead of purified CP; CP band stained with o-dianisidine; only the binder purified
[4] = target: T2, Human ceruloplasmin (human); test: as above

Measured: binding

Recombinant human lactoferrin
binds: all assays above

These are yes or no findings as the source states them, for the method shown. Binding can be weak; no strength is given.
